{"source": "PubChem BioAssay AID1259308 (NCATS, 2017)", "aim": "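Genes whose loss raises luciferase production in HEK293 cells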 (primary screen)", "cell system": "human HEK293 embryonic kidney cells stably expressing firefly luciferase (HEK-CMV-Luc2-Hygro)", "reagent": "single siRNA against human genes, 0.8 pmol siRNA per well", "duration": "72 h", "measurement": "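Luciferase light (ONE-Glo) measured on one replicate plate set and viability (CellTiter-Glo) on the other, scaled to a negative control siRNA, with robust z-scores and luciferase per cell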", "direction": "total luciferase, z-score: higher = more reporter protein produced", "hit rule": "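An siRNA counts as active if its total luciferase robust z-score exceeds 3; genes with two or more such siRNAs out of three were retested with fresh siRNAs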", "calls": "active = raised luciferase; inactive = no rise", "note": "In all, the deposit lists about 59,000 reagents; shown is a part drawn at random. In the full data, about 1,510 (2.6%) were called active. 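Calls use total luciferase alone and ignore viability, so some active siRNAs may act by altering cell number.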 The numbers tell different reagents against one gene apart. Further read-outs or replicates are left out here. No sequences are given here."}
{"gene": "ZAR1L", "reagent no.": 1, "total luciferase, z-score": 1.72, "activity call": "inactive"}
{"gene": "ZAR1L", "reagent no.": 2, "total luciferase, z-score": 2, "activity call": "inactive"}
{"gene": "ZAR1L", "reagent no.": 3, "total luciferase, z-score": 0.441, "activity call": "inactive"}
{"gene": "NEUROD2", "reagent no.": 1, "total luciferase, z-score": 0.79, "activity call": "inactive"}
{"gene": "NEUROD2", "reagent no.": 2, "total luciferase, z-score": -2.32, "activity call": "inactive"}
{"gene": "NEUROD2", "reagent no.": 3, "total luciferase, z-score": 0.902, "activity call": "inactive"}
{"gene": "COX7C", "reagent no.": 1, "total luciferase, z-score": 1.34, "activity call": "inactive"}
{"gene": "COX7C", "reagent no.": 2, "total luciferase, z-score": 0.659, "activity call": "inactive"}
{"gene": "COX7C", "reagent no.": 3, "total luciferase, z-score": -0.166, "activity call": "inactive"}
{"gene": "LGSN", "reagent no.": 1, "total luciferase, z-score": 0.384, "activity call": "inactive"}
{"gene": "LGSN", "reagent no.": 2, "total luciferase, z-score": -0.511, "activity call": "inactive"}
{"gene": "LGSN", "reagent no.": 3, "total luciferase, z-score": -0.925, "activity call": "inactive"}

An excerpt from the list above:
{"gene": "NEUROD2", "reagent no.": 3, "total luciferase, z-score": 0.902, "activity call": "inactive"}
{"gene": "COX7C", "reagent no.": 1, "total luciferase, z-score": 1.34, "activity call": "inactive"}
